From paper PMC7819943, “Rice protein-binding microarrays: a tool to detect cis-acting elements near promoter regions in rice” come the findings set out here.

Some of the results follow.

The assay deals with T1, OsSMF1 (Oryza sativa, UniProt Q6ZLB0 1-436).
T1 sequence: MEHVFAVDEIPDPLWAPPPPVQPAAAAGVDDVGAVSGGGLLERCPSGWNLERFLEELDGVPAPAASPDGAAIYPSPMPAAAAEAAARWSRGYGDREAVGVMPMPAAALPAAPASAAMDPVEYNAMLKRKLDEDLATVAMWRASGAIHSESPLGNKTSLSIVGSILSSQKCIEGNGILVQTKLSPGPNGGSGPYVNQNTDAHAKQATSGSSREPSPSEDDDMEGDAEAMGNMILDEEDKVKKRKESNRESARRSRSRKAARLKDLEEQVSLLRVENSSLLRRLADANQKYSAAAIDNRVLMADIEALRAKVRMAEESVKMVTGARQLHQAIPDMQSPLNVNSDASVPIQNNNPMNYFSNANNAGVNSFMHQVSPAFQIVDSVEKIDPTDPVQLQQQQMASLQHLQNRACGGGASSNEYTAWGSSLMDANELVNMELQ
In words: protein-binding microarray (RPBM); PBS, 2% BSA, 51.3 ng/ul salmon testes DNA, 50 uM zinc acetate, 200 nM TF, 25 C, 1 h; high values mean tight binding. Particulars: protein: recombinant; tags: N-terminal polyhistidine and DsRed monomer fusion (pET32a); chain copies: 2; label: CyDye5-dUTP incorporated in the synthesized complementary strand; 3' TTTTT single-stranded linker to array surface; dsDNA, one strand shown. In outline: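 Per-feature fluorescence intensity (arbitrary units), read on an Axon 4000B scanner, is the binding signal. Transcription factors carrying an N-terminal polyhistidine tag and DsRed fusion were expressed in E. coli BL21-CodonPlus and purified on Ni–NTA. A custom Agilent array, made double-stranded by primer extension with Cy5-dUTP and blocked with 2% BSA, was incubated with 200 nM protein in PBS, 2% BSA, salmon testes DNA and 50 µM zinc acetate at 25 °C for 1 h and then washed.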
With “TTGCGGAATCATCAGTGCTATATGTTGTGCAGAATTGGATCGGAGTCACCTAGTGCAG”, the binding signal is 3150 fluorescence intensity (a.u.).
As for “GTCAGGGTTCAATTTCCTGACATGTATGCACACACGTCAGCGGAGTCACCTAGTGCAG”, the binding signal was 15200 fluorescence intensity (a.u.).
“TCCTCCTGGCGCACCAGCTCCTGTCGGCGGCGGCGTATCACGGAGTCACCTAGTGCAG”: the binding signal is 3860 fluorescence intensity (a.u.).
For the sequence “ATCCATGCTCTGGCCTCCTCTTTGATTTTCGTCAGCAAGCCGGAGTCACCTAGTGCAG”, the binding signal was 4850 fluorescence intensity (a.u.).
For “AGTAGAGTCGCCAACTACCCTAACCTAGCAATCACCGCATCGGAGTCACCTAGTGCAG” the value was 17800 fluorescence intensity (a.u.).
As to “TTCCAACCCGCCCCGTGTGCTGACGTGGCAGCCATGTTGGCGGAGTCACCTAGTGCAG”, the binding signal is 19300 fluorescence intensity (a.u.).
Turning to “CGTACGCATAATAACGCGTAATATGATCAAGTCATGTGTGCGGAGTCACCTAGTGCAG”, the binding signal is 3510 fluorescence intensity (a.u.).
For “TACGGCCCCACTTTTATTTTCAATTCATTTGATGACTAGGCGGAGTCACCTAGTGCAG” the value was 6350 fluorescence intensity (a.u.); for “TCTTTCCATTTGCACATAGGCCAACTCAGTTCAAGTGGCCCGGAGTCACCTAGTGCAG”, 3250 fluorescence intensity (a.u.).
As for “AACTATGAGCTTATGAGCTTGGATACATACTAGTTCAGATCGGAGTCACCTAGTGCAG”, the binding signal is 5800 fluorescence intensity (a.u.).
For “ACGGAGGATGCGCCGCGCCATGTCAGCGGCCATGGGGTGCCGGAGTCACCTAGTGCAG”, the binding signal is 8800 fluorescence intensity (a.u.).
As for “TCCCTGAACACAAAGCTACTGATGACTCGGTTCAGGCACACGGAGTCACCTAGTGCAG”, the binding signal is 4280 fluorescence intensity (a.u.).
Then “CTCCGTTTTCACCCCTATGTATAGTTTATATGTAAATTGCCGGAGTCACCTAGTGCAG”, with 3310 fluorescence intensity (a.u.); and “ACCTCACGCAACTCACGTTCTTTGATCAAAGCCGTACTCACGGAGTCACCTAGTGCAG”, with 22900 fluorescence intensity (a.u.); and “ACTAGCTAGCTAGGTGTGCCACGCACTCGCACTGCACGGACGGAGTCACCTAGTGCAG”, with 5860 fluorescence intensity (a.u.).
For “GCTGAGAAGATTCCCGAGTGGAAGCCACGTGGCAGACTCCCGGAGTCACCTAGTGCAG” the value was 14600 fluorescence intensity (a.u.); for “GCATGCGGGTGAGGTGACAAGGACGCGGCCACGGGGATCACGGAGTCACCTAGTGCAG”, 4230 fluorescence intensity (a.u.); for “TATGTCCTGATTAGTTCTGGTCTACTGGTATGCTGTTTGCCGGAGTCACCTAGTGCAG”, 35600 fluorescence intensity (a.u.).
Consider “CAACATATGCACTAACAAATGACAAACTTAGCAAAACTTGCGGAGTCACCTAGTGCAG”, for which the binding signal was 35700 fluorescence intensity (a.u.).
On to “AAAAGTAGGAGTAAAATCACAATTGAATCGTAAAGCAAGACGGAGTCACCTAGTGCAG”, for which the binding signal was 4800 fluorescence intensity (a.u.).
For “AGAGCAGATCCCCTGTCACGCCGACGCCGCCGCCGCCACCCGGAGTCACCTAGTGCAG”, the binding signal is 5410 fluorescence intensity (a.u.).
Then “CATAGTGCAGGGGAGAAGCCAGGGAAGAGGGAGGTGACGTCGGAGTCACCTAGTGCAG”, with 3290 fluorescence intensity (a.u.); and “TGCCAATGTTCCAATTGGTGTTGTCATCTTTGGGTTACCACGGAGTCACCTAGTGCAG”, with 14100 fluorescence intensity (a.u.); and “GGAGAAAATTGCGGAGGGGATCCACAGTTCCAGCCGCGTGCGGAGTCACCTAGTGCAG”, with 3190 fluorescence intensity (a.u.).
For the sequence “CCACCTCGTCACGCATGCGTGTTCAAACGTGAACTAATCACGGAGTCACCTAGTGCAG”, the binding signal is 4340 fluorescence intensity (a.u.).
On to “CGGCGCCGCCGATTTGATTCGCCCACCCCTAGGCCCCAGCCGGAGTCACCTAGTGCAG”, for which the binding signal was 29300 fluorescence intensity (a.u.).
On to “TACCGCAAAGATGAAGCTACCTTTTACCAGTTGTATATTGCGGAGTCACCTAGTGCAG”, for which the binding signal was 35100 fluorescence intensity (a.u.).
For the sequence “GGAGGAGGAGGAGGAGGGATTGATTGGTGAGCTCGTGTTGCGGAGTCACCTAGTGCAG”, the binding signal was 3940 fluorescence intensity (a.u.).
As for “AATGACACAGATATGAGTCATCGAAGCAGGGGATCCCCAACGGAGTCACCTAGTGCAG”, the binding signal was 7940 fluorescence intensity (a.u.).
In the case of “GCTGTGGCTTTTGCATCGCATGCATGCGTGCTTTGCCTGGCGGAGTCACCTAGTGCAG”, the binding signal is 3160 fluorescence intensity (a.u.).
On to “TTCTCTGTACACGTGGTGGCCCACCTGTGCACAACCTGCTCGGAGTCACCTAGTGCAG”, for which the binding signal is 9230 fluorescence intensity (a.u.).
Then “TGTCAGGATGCCATGTCATCATCTGATCTCTTTCCCCTCCCGGAGTCACCTAGTGCAG”, with 21000 fluorescence intensity (a.u.); and “CAACCAGGCGGCAACGACGCTATGCTGGGATGACTCCTCGCGGAGTCACCTAGTGCAG”, with 3500 fluorescence intensity (a.u.).
As to “TTTTGCTGCATTCGCCATCGTCATTGACGAGTCGATCTATCGGAGTCACCTAGTGCAG”, the binding signal is 4670 fluorescence intensity (a.u.).
As to “GTGGTACTAGTAGCTAGCTAGTGACACTTCAGAATCCTCTCGGAGTCACCTAGTGCAG”, the binding signal is 4520 fluorescence intensity (a.u.).
Consider “AGTGATCGTCTTTATTCGAATAGCTCGTCCAAAGTTGTGACGGAGTCACCTAGTGCAG”, for which the binding signal was 3160 fluorescence intensity (a.u.).
In the case of “CGACGAGATGGTGATGAGGTGGTGGTGGTGGTGGACTGGTCGGAGTCACCTAGTGCAG”, the binding signal is 5700 fluorescence intensity (a.u.).
Then “AAAACCTGTGCTTGTGCTGAGCTGCTGATACGCTGACATTCGGAGTCACCTAGTGCAG”, with 3170 fluorescence intensity (a.u.).
Consider “TGTCAGTTGTTTGTTTTACGTGGATTGTGATGAATACTAGCGGAGTCACCTAGTGCAG”, for which the binding signal was 3960 fluorescence intensity (a.u.).
As to “CAGTACTTGAAACATAATGTTTTCATACATTAGAGTAAAACGGAGTCACCTAGTGCAG”, the binding signal is 32000 fluorescence intensity (a.u.).
On to “TTTCTGATTTACGTGGCTTGTGAGTAGGGCGCCTCCTCATCGGAGTCACCTAGTGCAG”, for which the binding signal was 4960 fluorescence intensity (a.u.).
Regarding “CTCCAAATAAAATCTGCCACATGGGCCTCCTTTAAGTGTCCGGAGTCACCTAGTGCAG”, the binding signal was 3660 fluorescence intensity (a.u.).
